Source: patent US20250213569A1, “METHODS AND COMPOSITIONS FOR MEASURING AND INHIBITING EXONUCLEASE ACTIVITY” (priority 2020, published 2025)
For at least one compound, name, drawing or mass did not settle the structure.

Biological target: SARS-CoV2 NSP14/NSP10 exonuclease (Severe acute respiratory syndrome coronavirus 2 (2019-nCoV) (SARS-CoV-2), UniProt P0DTD1)
Type: biochemical
Conditions: class symbols − to +++++, key not given

O=C(O)CC(=O)c1c(O)[nH]c2ccccc12 [Compound 26, 3-Hydroxy-3-(2-oxo-1,2-dihydro-indol-3-ylidene)-propionic acid]
Inhibitory activity present: −
